The nature of this series: in vitro. As to conditions: mouse, liver microsomes, pH 7.47. (In general: Microsomes from liver hold many membrane-bound enzymes, among them those of drug oxidation.)

Consider 1 molecule from patent US10059674B2, “Design, synthesis, and biological evaluation of 1-methyl-1, 4-dihyrdoindeno[1,2-C]pyrazole analogues as potential anticaner agents targeting tubulin colchicine binding site” (ACT PHARMA CO., LTD., priority 2016, dated 2018).

For `CN(C)CCOC(c1ccccc1)c1ccccc1` [diphenhydramine, reference compound], the microsomal CLint at 1 µM was determined as 27.9 µL/min/mg.

For orientation: microsomal CLint means the capacity of the preparation to metabolise the compound, expressed as a volume cleared per time. A higher microsomal CLint goes with rapid turnover.
